Molecules are shown by their SMILES. ± gives the standard deviation of the averaged measurements. The entries are a selection whose mix differs from that of the whole data set.

This assay concerns HT-1080. The experiment in a line: relative cell viability with RSL3 co-treatment (fraction of control); higher = stronger protection from RSL3-induced ferroptosis (higher viability). As to conditions: 10 µM.
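Also: viability read as CCK-8 absorbance at 450 nm in cells co-exposed to the GPX4 inhibitor RSL3, relative to a 0.01% DMSO vehicle control.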

`Cc1nc2c(-c3cnc(N)nc3)nc(N3CCOCC3)nc2n1C(C)C`: the relative cell viability came out at 0.583 ± 0.13.
Take `Cc1ccccc1-n1c(Cn2nc(-c3cccc(O)c3)c3c(N)ncnc32)nc2cccc(C)c2c1=O`: the relative cell viability was determined as 0.64 ± 0.075.
